Source: publication doi:10.1101/2022.10.09.511391

Molecular target: HA-tagged LRR domain of LRRFIP2
Test: co-IP

B1: Flag-TRB3 (protein, UniProt Q8K4K2 1-354)
chain: MRATPLAASADVSCRKKPLEFDDNIDAKCPVLKRVRDEPEPGPLPSLLPPSPPPASDLSPAVAPATRLGPYILLEREQGSCSYRALHCPTGTEYTCKVYPASEAQAVLAPYARLPTHQHVARPTEVLLGSRLLYIFFTKTHGDLHSLVRSRRGIPESEAAGLFRQMASAVAHCHKHGLVLRDLKLRRFVFSNCERTKLVLENLEDACVMTGSDDSLWDKHACPAYVGPEILSSRPSYSGKAADVWSLGVALFTMLAGRYPFHDSEPVLLFGKIRRGTFALPEGLSAPARCLIRCLLRKEPSERLVALGILLHPWLREDHGRVSPPQSDRREMDQVVPDGPQLEEAEEGEVGLYG
Q: For B1, which binding is on record?
A: no binding

Results are given in words; binding and its absence hold for the method and conditions named. Binding seen in cells or lysates may run through a third protein. Sequences can lack the tags named with a protein.
